This note sets out measurements from PMC8357417, “CTP and parS coordinate ParB partition complex dynamics and ParA-ATPase activation for ParABS-mediated DNA partitioning” (eLife, 2021).

The exact form of at least one protein or probe is not confirmed. At least one verdict rests on a figure or table, not on a statement of the authors. Protein sequences can lack the tags named with them.

The target of the series is T1, ParBF (F plasmid (Escherichia coli)) (UniProt P62558).
T1 sequence (looked up, limits assumed): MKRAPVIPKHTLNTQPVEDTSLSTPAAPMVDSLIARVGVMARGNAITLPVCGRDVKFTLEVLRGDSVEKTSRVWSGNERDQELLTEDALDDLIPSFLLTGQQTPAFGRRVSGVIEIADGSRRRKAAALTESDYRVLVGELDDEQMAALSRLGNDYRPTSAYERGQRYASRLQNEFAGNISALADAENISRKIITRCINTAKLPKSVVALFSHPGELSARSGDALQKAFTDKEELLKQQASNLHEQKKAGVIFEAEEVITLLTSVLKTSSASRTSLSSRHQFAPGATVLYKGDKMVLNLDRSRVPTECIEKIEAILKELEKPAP
Kind of series: EMSA. To be noted: 0.1 nM DNA, KD only in figure; EMSA: 0.1 nM 32P-DNA, 4-12% acrylamide gel, 1x TBE + 5 mM Mg acetate, 4 C, 150 V, 1 h; recombinant protein; protein details: C-terminal His6; label: 32P (EMSA).

For the sequence “AGTCTGGGACCACGGTCCCACTCG (double strand) [24 bp parSF (sopC consensus)]”, the binding result is recorded as “binds”.
